## Percent effect of library compounds

Measurements from “University of Dundee, Small-Polar-MMV Screening Library” (2021), ChEMBL document CHEMBL3988442.

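Phenotypic screen: M. tuberculosis growth, cholesterol and DPPC medium, 4 days; the read-out is not stated. Compounds at 500 µM. Higher reads as more growth inhibition (inferred: compounds with an IC50 in retests scored well above the rest). About 18,000 compounds were tested under these conditions; 5% (about 900) showed 50% or more at least once.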

Each number is a percent effect as filed. The controls that fix the scale are not given in the record; negative values are as filed. This is an unselected part of the compounds tested.

structure,percent effect
O=C(NCc1ccccc1)N1CCNCC1,-2.243%
Cc1noc(C)c1CN(C)C(=O)c1ccc(=O)n(C)c1,-10.74%
Nc1ccc(CNc2ccc(C(F)(F)F)nn2)cn1,21.1%
CN1CCN(C(=O)CNS(=O)(=O)c2ccccc2)CC1,-0.2245%
CCOCCCN(C(=O)COC)c1ncccc1Br,9.168%
Cc1cc(CNC(=O)NCc2ncnn2C)c(C)o1,1.068%
Cc1cc(NC(C)c2ccco2)nc(N)n1 (centres undefined),38.66%
CC(C)(C)OC(=O)N1CCCC(CN)C1 (centres undefined),10.84%
c1cc(N2CCCNCC2)ccn1,-4.08%
Cn1ccnc1CSCCN1CCOCC1,-6.947%
CC(C)(C)OC(=O)N1CCN(CCS(N)(=O)=O)CC1,-1.103%
NCCCS(=O)(=O)Cc1ccccc1,7.635%
CC(NC(=O)NC1CCN(C)CC1)c1ccncc1F (centres undefined),-8.822%
CCC[C@H]1CN(C(=O)c2csc(NC)n2)C[C@@H]1N,-1.517%
Cc1cccc(C(=O)N(C)C)n1,-6.292%
CN(C)c1cc(CNC(=O)NC2CC2)ccn1,6.725%
COCCCNCc1cccc(OC)c1OC,10.76%
N#Cc1ccc2c(c1)CCCCC2=O,16.48%
O=c1cccnn1CC(O)COCc1ccccc1F (centres undefined),14.06%
CCOC(=O)C1(N)CCN(C)CC1,-20.71%
CCN(CC)C(=O)Nc1cc(OC)c(OC)c(OC)c1,16.49%
COc1cc(CN)cc(Cl)c1OCC(N)=O,-4.914%
O=C(Cc1ccc(O)c(Cl)c1)NCC1CCOC1 (centres undefined),5.428%
O=C(OCc1cc(=O)n2ccsc2n1)c1ccccc1,-20.44%
CC(O)CN1CCN(Cc2ccccc2C#N)CC1 (centres undefined),-7.464%
CCn1c(C(=O)N2CCOCC2C)cc2ccccc21 (centres undefined),48.45%
CCC(C)N(C)CCC(=O)Nc1ccc(C(N)=O)cc1 (centres undefined),9.093%
Cn1ccnc1CN1CCN(C2=NCC(C)(C)S2)CC1,16.11%
CCN1CCCN(C(=O)c2cc(C3CC3)on2)CC1=O,1.573%
CCC(C)(N)c1nc(=O)c2c([nH]1)CCC2 (centres undefined),-12.86%
N#CCCN1CCC(C(=O)NCc2ccccc2)CC1,-7.819%
C=C(C)c1nc(C#N)c(NCc2ccco2)o1,76.18%
CCC(SC)C(=O)NCc1nnc(C)n1C1CC1 (centres undefined),-3.661%
c1ccc2c(c1)COC21CCNC1 (centres undefined),-10.34%
Cc1ccc(O)c(CNn2cnnc2)c1,-3.161%
CCOc1ccc(S(=O)(=O)N2CCNC(=O)C2)cc1C,-6.029%
OCC(O)CSCc1ccc(F)cc1 (centres undefined),29.53%
CC1CN(CC(=O)Nc2ccn(C)n2)CCCO1 (centres undefined),8.105%
O=C(NC1CC1)c1ccc2c(c1)CCO2,26.99%
NC(=O)COc1ccccc1C(=O)N1CCSCC1,1.464%
CCOC(=O)CCNC(=O)Nc1ncccc1C,17.35%
CC(OC(=O)c1cncc(Br)c1)C(=O)NC1CC1 (centres undefined),3.44%
CC(C(N)=O)N1CCC(C(=O)NC2CCCCC2)CC1 (centres undefined),7.263%
O=C(Nc1ccc(Cl)cn1)c1ccncc1,34.75%
O=C(CN1CCN(CCO)CC1)NCC(F)(F)F,-7.252%
CCN(CCC(N)=O)Cc1cccc2c1OCO2,37.65%
Cc1noc(C)c1NC(=O)NC1CCN(C)CC1,5.009%
COC(=O)CSCC(=O)Nc1cc(F)cc(F)c1,53.44%
CCOc1ccc(S(=O)(=O)N[C@@H](C)c2cncs2)cn1,22.95%
Cn1cnc(Br)c1CO,5.403%
Cc1noc(C)c1CC(=O)N1CCN(C)CC1,-8.71%
Cn1ccnc1CNC1CC1,2.314%
O=C(Nc1ccc(Br)cn1)C1CCCNC1 (centres undefined),1.307%
CC(CN1CCOCC1)NC(=O)Nc1ccccn1 (centres undefined),-7.928%
COc1c(F)ccc(F)c1C(=O)NCCC(O)C(C)C (centres undefined),-11.24%
CC(C)(CO)NC1CCS(=O)(=O)C1 (centres undefined),-11.28%
Cn1ncnc1NC(=O)c1c(F)cc(F)cc1F,-11.4%
CCOC(=O)c1ccncc1C(=O)Nc1nccs1,15.53%

The last 6 entries again:

structure	percent effect
O=C(Nc1ccc(Br)cn1)C1CCCNC1 (centres undefined)	1.307%
CC(CN1CCOCC1)NC(=O)Nc1ccccn1 (centres undefined)	-7.928%
COc1c(F)ccc(F)c1C(=O)NCCC(O)C(C)C (centres undefined)	-11.24%
CC(C)(CO)NC1CCS(=O)(=O)C1 (centres undefined)	-11.28%
Cn1ncnc1NC(=O)c1c(F)cc(F)cc1F	-11.4%
CCOC(=O)c1ccncc1C(=O)Nc1nccs1	15.53%